Counter-ions that a name gives are not always drawn. For at least one compound, name, drawing or mass did not settle the structure.
Test system: human and animal plasma
Experiment: Determination of anticoagulatory activity: activated partial thromboplastin time (aPTT) in plasma
Details: concentration of test substance which brings about a 1.5-fold extension of the aPTT, plasma species not given
Procedure: The anticoagulatory activity of the test substances is determined in vitro in human and animal plasma (for example mouse, rat, rabbit, pig and dog plasma). To this end, blood is drawn off in a mixing ratio of sodium citrate/blood of 1:9 using a 0.11 molar sodium citrate solution as receiver. Immediately after the blood has been drawn off, it is mixed thoroughly and centrifuged at about 4000 g for 15 minutes. The supernatant is pipetted off.
The activated partial thromboolastin time (aPTT) is determined in the presence of varying concentrations of test substance or the corresponding solvent using a commercial test kit (C. K. Prest from Diagnostica Stago). The test compounds are incubated with the plasma and the PTT reagent (cephalin, kaolin) at 37° C. for 3 minutes. Coagulation is then started by addition of a 25 mM aqueous calcium chloride solution, and the time when coagulation occurs is determined. The concentration of test substance which brings about a 1.5-fold extension of the aPTT is determined.

## Cc1cc(C(=O)NC2CCNCC2)ccc1-c1ccc(C[C@H](NC(=O)[C@H]2CC[C@H](CN)CC2)C(=O)Nc2ccc(-c3nn[nH]n3)cc2)cc1 [Example 1, 4′-[(2S)-2-({[trans-4-(Aminomethyl)cyclohexyl]carbonyl}amino)-3-oxo-3-{[4-(2H-tetrazol-5-yl)phenyl]amino}propyl]-2-methyl-N-(piperidin-4-yl)biphenyl-4-carboxamide hydrochloride]
hydrochloride
  aPTT: 0.1 µmol/L

## COc1cc(C(=O)N[C@@H]2CCNC2)ccc1-c1ccc(C[C@H](NC(=O)[C@H]2CC[C@H](CN)CC2)C(=O)Nc2ccc(-c3nn[nH]n3)cc2)cc1 [Example 71, 4′-[(2S)-2-({[trans-4-(Aminomethyl)cyclohexyl]carbonyl}amino)-3-oxo-3-{[4-(2H-tetrazol-5-yl)phenyl]amino}propyl]-2-methoxy-N-[(3R)-pyrrolidin-3-yl]biphenyl-4-carboxamide hydrochloride]
  aPTT: 0.1 µmol/L

## Cc1cc(C(=O)NC(CO)CO)ccc1-c1ccc(C[C@H](NC(=O)[C@H]2CC[C@H](CN)CC2)C(=O)Nc2ccc(-c3nn[nH]n3)cc2)cc1 [Example 72, 4′-[(2S)-2-({[trans-4-(Aminomethyl)cyclohexyl]carbonyl}amino)-3-oxo-3-{[4-(2H-tetrazol-5-yl)phenyl]amino}propyl]-N-(1,3-dihydroxypropan-2-yl)-2-methylbiphenyl-4-carboxamide hydrochloride]
  aPTT: 0.15 µmol/L

— patent publication US20160272617A1, “SUBSTITUTED PHENYLALANINE DERIVATIVES” (BAYER PHARMA AKTIENGESELLSCHAFT, priority 2013, published 2016)
